Measurements as given in article PMC8764063.
Results are given in words; binding and its absence hold for the method and conditions named. In cells and extracts the contact can be indirect. Some binding calls cover weakened binding; strength is not graded here. For some assays here: Where a sequence is shown, tags or fusion partners need not be part of it.

By UniProt entry, the sequences of proteins in these tests, tags left out. Where a name states a change or a piece, a line headed by the entry shows the natural chain unless it says otherwise. Chains listed by the source or under a name are the forms on record and can include a tag or linker.
UniProt P09874: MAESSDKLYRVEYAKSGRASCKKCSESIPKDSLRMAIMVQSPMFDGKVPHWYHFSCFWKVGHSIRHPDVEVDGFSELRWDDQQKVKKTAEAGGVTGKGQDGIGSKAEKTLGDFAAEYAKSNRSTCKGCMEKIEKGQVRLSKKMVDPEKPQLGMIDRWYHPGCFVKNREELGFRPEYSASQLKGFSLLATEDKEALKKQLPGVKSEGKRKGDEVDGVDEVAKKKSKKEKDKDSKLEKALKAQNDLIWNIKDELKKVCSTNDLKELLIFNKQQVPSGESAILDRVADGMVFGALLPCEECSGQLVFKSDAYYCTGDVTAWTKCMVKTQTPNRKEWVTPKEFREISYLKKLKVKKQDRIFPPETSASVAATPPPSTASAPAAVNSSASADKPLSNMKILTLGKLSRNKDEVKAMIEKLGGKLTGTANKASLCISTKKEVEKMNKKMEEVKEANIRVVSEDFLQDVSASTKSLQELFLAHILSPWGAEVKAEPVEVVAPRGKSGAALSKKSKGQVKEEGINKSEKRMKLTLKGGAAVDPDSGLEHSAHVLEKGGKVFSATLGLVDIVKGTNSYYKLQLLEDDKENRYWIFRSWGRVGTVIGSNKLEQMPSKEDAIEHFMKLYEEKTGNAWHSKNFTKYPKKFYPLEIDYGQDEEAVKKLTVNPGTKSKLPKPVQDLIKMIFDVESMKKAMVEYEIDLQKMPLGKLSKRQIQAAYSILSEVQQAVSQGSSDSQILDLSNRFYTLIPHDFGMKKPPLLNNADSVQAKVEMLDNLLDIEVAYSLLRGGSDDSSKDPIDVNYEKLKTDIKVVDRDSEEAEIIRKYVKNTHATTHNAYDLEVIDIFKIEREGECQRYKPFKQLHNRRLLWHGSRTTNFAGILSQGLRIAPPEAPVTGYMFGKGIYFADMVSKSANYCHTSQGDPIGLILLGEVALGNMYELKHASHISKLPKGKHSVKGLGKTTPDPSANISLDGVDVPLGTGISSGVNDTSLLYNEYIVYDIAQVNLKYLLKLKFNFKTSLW
HA-tagged mutant tPARP1 (HA-mtPARP1, tPARP1 E988A) (P09874, form named): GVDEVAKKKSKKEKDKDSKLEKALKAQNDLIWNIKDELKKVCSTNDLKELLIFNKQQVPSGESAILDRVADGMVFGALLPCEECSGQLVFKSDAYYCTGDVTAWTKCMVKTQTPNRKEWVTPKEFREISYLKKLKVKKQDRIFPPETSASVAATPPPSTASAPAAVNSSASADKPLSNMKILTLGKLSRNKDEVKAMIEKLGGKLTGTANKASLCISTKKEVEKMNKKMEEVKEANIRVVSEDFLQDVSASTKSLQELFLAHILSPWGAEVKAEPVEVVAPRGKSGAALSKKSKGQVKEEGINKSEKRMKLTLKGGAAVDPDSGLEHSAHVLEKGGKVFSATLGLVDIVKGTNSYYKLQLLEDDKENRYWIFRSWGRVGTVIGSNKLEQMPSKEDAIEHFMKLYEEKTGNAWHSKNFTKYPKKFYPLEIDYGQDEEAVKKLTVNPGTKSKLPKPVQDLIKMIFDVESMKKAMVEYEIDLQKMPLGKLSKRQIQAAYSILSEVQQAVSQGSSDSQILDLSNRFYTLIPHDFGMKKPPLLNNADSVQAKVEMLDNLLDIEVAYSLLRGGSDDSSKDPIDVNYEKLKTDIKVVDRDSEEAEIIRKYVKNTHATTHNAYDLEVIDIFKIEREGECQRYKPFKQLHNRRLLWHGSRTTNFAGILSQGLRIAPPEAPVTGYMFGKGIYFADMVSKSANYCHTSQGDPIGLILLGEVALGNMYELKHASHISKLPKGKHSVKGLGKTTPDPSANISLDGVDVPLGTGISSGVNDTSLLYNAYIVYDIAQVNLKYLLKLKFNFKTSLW
UniProt Q9Y530: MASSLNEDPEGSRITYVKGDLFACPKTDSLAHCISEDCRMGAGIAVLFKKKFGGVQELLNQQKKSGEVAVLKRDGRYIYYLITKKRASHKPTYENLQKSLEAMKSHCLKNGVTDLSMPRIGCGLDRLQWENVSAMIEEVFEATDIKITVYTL
HA-tagged mutant TARG1 (HA-mTARG1) (Q9Y530, form named): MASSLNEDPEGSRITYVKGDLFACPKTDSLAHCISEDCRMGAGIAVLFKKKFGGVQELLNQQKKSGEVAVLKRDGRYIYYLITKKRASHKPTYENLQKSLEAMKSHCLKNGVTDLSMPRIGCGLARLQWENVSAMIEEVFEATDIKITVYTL

T1: FLAG-POLR3F (human), Q9H1D9
T1 chain: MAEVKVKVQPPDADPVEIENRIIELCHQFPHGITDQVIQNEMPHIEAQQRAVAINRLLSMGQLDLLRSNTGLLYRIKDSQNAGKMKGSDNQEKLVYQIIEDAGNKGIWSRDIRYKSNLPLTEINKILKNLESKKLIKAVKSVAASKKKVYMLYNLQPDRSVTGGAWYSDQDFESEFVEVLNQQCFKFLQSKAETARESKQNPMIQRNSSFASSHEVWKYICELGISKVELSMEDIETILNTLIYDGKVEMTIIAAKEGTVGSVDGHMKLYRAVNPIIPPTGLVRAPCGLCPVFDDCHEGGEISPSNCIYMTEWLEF

T2: POLR3F (human (endogenous in U2OS)), Q9H1D9
T2 chain: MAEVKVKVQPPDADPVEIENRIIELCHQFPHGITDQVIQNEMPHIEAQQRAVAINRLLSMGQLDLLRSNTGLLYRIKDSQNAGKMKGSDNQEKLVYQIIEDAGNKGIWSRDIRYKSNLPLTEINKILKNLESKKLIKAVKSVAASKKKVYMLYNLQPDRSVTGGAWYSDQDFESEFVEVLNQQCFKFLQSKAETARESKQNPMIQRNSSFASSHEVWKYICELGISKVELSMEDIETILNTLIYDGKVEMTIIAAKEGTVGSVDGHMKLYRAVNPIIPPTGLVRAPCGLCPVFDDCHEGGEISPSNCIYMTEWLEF

T3: FLAG-POLR3F, Q9H1D9
T3 chain: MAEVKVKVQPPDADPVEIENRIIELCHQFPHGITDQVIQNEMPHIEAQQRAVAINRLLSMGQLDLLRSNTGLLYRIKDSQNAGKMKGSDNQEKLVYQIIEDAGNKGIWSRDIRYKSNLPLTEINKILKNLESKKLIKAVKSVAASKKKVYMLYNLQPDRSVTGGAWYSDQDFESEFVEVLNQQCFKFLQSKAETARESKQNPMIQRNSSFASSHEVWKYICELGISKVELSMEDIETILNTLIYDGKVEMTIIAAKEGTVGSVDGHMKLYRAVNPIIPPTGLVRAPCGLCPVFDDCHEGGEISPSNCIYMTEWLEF


Columns and labels:
[1] = molecular target: mtPARP1 generated in cells by caspase-mediated cleavage of mPARP1 (human) (UniProt P09874); test: co-IP; mPARP1 expressed in U2OS PARP1-null cells, with or without 5 μg/mL poly(dA-dT) induction for 6 h (caspase cleavage to mtPARP1); endogenous POLR3A, POLR3B, POLR3F
[2] = molecular target: HA-tagged full-length PARP1 with the E988A mutation (mPARP1) (human) (UniProt P09874); test: as above
[3] = molecular target: HA-tagged mutant tPARP1 (HA-mtPARP1, tPARP1 E988A) (human) (UniProt P09874); test: co-IP; HA-tagged mtPARP1 or full-length mPARP1 ectopically expressed in U2OS-PARP1 knockout cells; IP with IgG as a negative control; POLR3A, POLR3B and POLR3F blotted
[4] = molecular target: HA-tagged full-length PARP1 with the E988A mutation (mPARP1) (human) (UniProt P09874); test: as above
[5] = molecular target: T1, FLAG-POLR3F (human), Q9H1D9; test: co-IP; Pol III complex purified by FLAG IP from U2OS cells stably expressing FLAG-POLR3F, with or without ADP-ribosylation by tPARP1 in vitro; subunits detected by Western blot with antibodies against the individual subunits; IgG as control IP; conditions: remark: other sources report otherwise
[6] = molecular target: T2, POLR3F (human (endogenous in U2OS)), …; test: co-IP; IP of POLR3F from the cytoplasmic fraction of U2OS cells treated with or without poly(dA-dT) (5 ug/ml, six hours); subunits detected by immunoblot; conditions: remark: other sources report otherwise
[7] = molecular target: T3, FLAG-POLR3F, Q9H1D9; test: co-IP; Pol III complex from U2OS cells stably expressing FLAG-POLR3F: NETN100 lysate (S100), FLAG-M2 beads at 4 °C, four washes, elution with 100 µg/mL FLAG peptide, dialysis against PBS, then POLR3G antibody 1 h; with or without ADP-ribosylation in vitro or poly(dA-dT) stimulation of the cells; conditions: remark: other sources report otherwise
[8] = molecular target: HA-tagged mutant tPARP1 (HA-mtPARP1, tPARP1 E988A) (human) (UniProt P09874); test: co-IP; myc-tagged Pol III subunit and HA-tagged protein co-transfected in U2OS-PARP1 knockout cells; NETN100 lysate, antibody and beads 2 h at 4 °C; western blotting
[9] = molecular target: HA-tagged mutant TARG1 (HA-mTARG1) (UniProt Q9Y530); test: as above

binding [1] | binding [2] | binding [3] | binding [4] | Molecule | further results
binds | no binding | binds | no binding | POLR3F, subunit of the RNA polymerase III (Pol III) complex, endogenous (from UniProt Q9H1D9 1-316) | 
 |  |  |  | POLR3G, O15318 1-223 (protein) MAGNKGRGRAAYTFNIEAVGFSKGEKLPDVVLKPPPLFPDTDYKPVPLKTGEGEEYMLALKQELRETMKRMPYFIETPEERQDIERYSKRYMKVYKEEWIPDWRRLPREMMPRNKCKKAGPKPKKAKDAGKGTPLTNTEDVLKKMEELEKRGDGEKSDEENEEKEGSKEKSKEGDDDDDDDAAEQEEYDEEEQEEENDYINSYFEDGDDFGADSDDNMDEATY | binding [5]: binds; binding [6]: binds
 |  |  |  | POLR3G, subunit of the Pol III complex, endogenous, O15318 1-223 (protein) MAGNKGRGRAAYTFNIEAVGFSKGEKLPDVVLKPPPLFPDTDYKPVPLKTGEGEEYMLALKQELRETMKRMPYFIETPEERQDIERYSKRYMKVYKEEWIPDWRRLPREMMPRNKCKKAGPKPKKAKDAGKGTPLTNTEDVLKKMEELEKRGDGEKSDEENEEKEGSKEKSKEGDDDDDDDAAEQEEYDEEEQEEENDYINSYFEDGDDFGADSDDNMDEATY | binding [7]: binds
binds | no binding | binds | no binding | POLR3A, subunit of the RNA polymerase III (Pol III) complex, endogenous (protein, UniProt O14802 1-1390) MVKEQFRETDVAKKISHICFGMKSPEEMRQQAHIQVVSKNLYSQDNQHAPLLYGVLDHRMGTSEKDRPCETCGKNLADCLGHYGYIDLELPCFHVGYFRAVIGILQMICKTCCHIMLSQEEKKQFLDYLKRPGLTYLQKRGLKKKISDKCRKKNICHHCGAFNGTVKKCGLLKIIHEKYKTNKKVVDPIVSNFLQSFETAIEHNKEVEPLLGRAQENLNPLVVLNLFKRIPAEDVPLLLMNPEAGKPSDLILTRLLVPPLCIRPSVVSDLKSGTNEDDLTMKLTEIIFLNDVIKKHRISGAKTQMIMEDWDFLQLQCALYINSELSGIPLNMAPKKWTRGFVQRLKGKQGRFRGNLSGKRVDFSGRTVISPDPNLRIDEVAVPVHVAKILTFPEKVNKANINFLRKLVQNGPEVHPGANFIQQRHTQMKRFLKYGNREKMAQELKYGDIVERHLIDGDVVLFNRQPSLHKLSIMAHLARVKPHRTFRFNECVCTPYNADFDGDEMNLHLPQTEEAKAEALVLMGTKANLVTPRNGEPLIAAIQDFLTGAYLLTLKDTFFDRAKACQIIASILVGKDEKIKVRLPPPTILKPVTLWTGKQIFSVILRPSDDNPVRANLRTKGKQYCGKGEDLCANDSYVTIQNSELMSGSMDKGTLGSGSKNNIFYILLRDWGQNEAADAMSRLARLAPVYLSNRGFSIGIGDVTPGQGLLKAKYELLNAGYKKCDEYIEALNTGKLQQQPGCTAEETLEALILKELSVIRDHAGSACLRELDKSNSPLTMALCGSKGSFINISQMIACVGQQAISGSRVPDGFENRSLPHFEKHSKLPAAKGFVANSFYSGLTPTEFFFHTMAGREGLVDTAVKTAETGYMQRRLVKSLEDLCSQYDLTVRSSTGDIIQFIYGGDGLDPAAMEGKDEPLEFKRVLDNIKAVFPCPSEPALSKNELILTTESIMKKSEFLCCQDSFLQEIKKFIKGVSEKIKKTRDKYGINDNGTTEPRVLYQLDRITPTQVEKFLETCRDKYMRAQMEPGSAVGALCAQSIGEPGTQMTLKTFHFAGVASMNITLGVPRIKEIINASKAISTPIITAQLDKDDDADYARLVKGRIEKTLLGEISEYIEEVFLPDDCFILVKLSLERIRLLRLEVNAETVRYSICTSKLRVKPGDVAVHGEAVVCVTPRENSKSSMYYVLQFLKEDLPKVVVQGIPEVSRAVIHIDEQSGKEKYKLLVEGDNLRAVMATHGVKGTRTTSNNTYEVEKTLGIEAARTTIINEIQYTMVNHGMSIDRRHVMLLSDLMTYKGEVLGITRFGLAKMKESVLMLASFEKTADHLFDAAYFGQKDSVCGVSECIIMGIPMNIGTGLFKLLHKADRDPNPPKRPLIFDTNEFHIPLVT | 
binds | no binding | binds | no binding | POLR3B, subunit of the RNA polymerase III (Pol III) complex, endogenous (protein, UniProt Q9NW08 1-1133) MDVLAEEFGNLTPEQLAAPIPTVEEKWRLLPAFLKVKGLVKQHIDSFNYFINVEIKKIMKANEKVTSDADPMWYLKYLNIYVGLPDVEESFNVTRPVSPHECRLRDMTYSAPITVDIEYTRGSQRIIRNALPIGRMPIMLRSSNCVLTGKTPAEFAKLNECPLDPGGYFIVKGVEKVILIQEQLSKNRIIVEADRKGAVGASVTSSTHEKKSRTNMAVKQGRFYLRHNTLSEDIPIVIIFKAMGVESDQEIVQMIGTEEHVMAAFGPSLEECQKAQIFTQMQALKYIGNKVRRQRMWGGGPKKTKIEEARELLASTILTHVPVKEFNFRAKCIYTAVMVRRVILAQGDNKVDDRDYYGNKRLELAGQLLSLLFEDLFKKFNSEMKKIADQVIPKQRAAQFDVVKHMRQDQITNGMVNAISTGNWSLKRFKMDRQGVTQVLSRLSYISALGMMTRISSQFEKTRKVSGPRSLQPSQWGMLCPSDTPEGEACGLVKNLALMTHITTDMEDGPIVKLASNLGVEDVNLLCGEELSYPNVFLVFLNGNILGVIRDHKKLVNTFRLMRRAGYINEFVSISTNLTDRCVYISSDGGRLCRPYIIVKKQKPAVTNKHMEELAQGYRNFEDFLHESLVEYLDVNEENDCNIALYEHTINKDTTHLEIEPFTLLGVCAGLIPYPHHNQSPRNTYQCAMGKQAMGTIGYNQRNRIDTLMYLLAYPQKPMVKTKTIELIEFEKLPAGQNATVAVMSYSGYDIEDALVLNKASLDRGFGRCLVYKNAKCTLKRYTNQTFDKVMGPMLDAATRKPIWRHEILDADGICSPGEKVENKQVLVNKSMPTVTQIPLEGSNVPQQPQYKDVPITYKGATDSYIEKVMISSNAEDAFLIKMLLRQTRRPEIGDKFSSRHGQKGVCGLIVPQEDMPFCDSGICPDIIMNPHGFPSRMTVGKLIELLAGKAGVLDGRFHYGTAFGGSKVKDVCEDLVRHGYNYLGKDYVTSGITGEPLEAYIYFGPVYYQKLKHMVLDKMHARARGPRAVLTRQPTEGRSRDGGLRLGEMERDCLIGYGASMLLLERLMISSDAFEVDVCGQCGLLGYSGWCHYCKSSCHVSSLRIPYACKLLFQELQSMNIIPRLKLSKYNE | 
 |  |  |  | myc-POLR3B (protein, UniProt Q9NW08 1-1133) MDVLAEEFGNLTPEQLAAPIPTVEEKWRLLPAFLKVKGLVKQHIDSFNYFINVEIKKIMKANEKVTSDADPMWYLKYLNIYVGLPDVEESFNVTRPVSPHECRLRDMTYSAPITVDIEYTRGSQRIIRNALPIGRMPIMLRSSNCVLTGKTPAEFAKLNECPLDPGGYFIVKGVEKVILIQEQLSKNRIIVEADRKGAVGASVTSSTHEKKSRTNMAVKQGRFYLRHNTLSEDIPIVIIFKAMGVESDQEIVQMIGTEEHVMAAFGPSLEECQKAQIFTQMQALKYIGNKVRRQRMWGGGPKKTKIEEARELLASTILTHVPVKEFNFRAKCIYTAVMVRRVILAQGDNKVDDRDYYGNKRLELAGQLLSLLFEDLFKKFNSEMKKIADQVIPKQRAAQFDVVKHMRQDQITNGMVNAISTGNWSLKRFKMDRQGVTQVLSRLSYISALGMMTRISSQFEKTRKVSGPRSLQPSQWGMLCPSDTPEGEACGLVKNLALMTHITTDMEDGPIVKLASNLGVEDVNLLCGEELSYPNVFLVFLNGNILGVIRDHKKLVNTFRLMRRAGYINEFVSISTNLTDRCVYISSDGGRLCRPYIIVKKQKPAVTNKHMEELAQGYRNFEDFLHESLVEYLDVNEENDCNIALYEHTINKDTTHLEIEPFTLLGVCAGLIPYPHHNQSPRNTYQCAMGKQAMGTIGYNQRNRIDTLMYLLAYPQKPMVKTKTIELIEFEKLPAGQNATVAVMSYSGYDIEDALVLNKASLDRGFGRCLVYKNAKCTLKRYTNQTFDKVMGPMLDAATRKPIWRHEILDADGICSPGEKVENKQVLVNKSMPTVTQIPLEGSNVPQQPQYKDVPITYKGATDSYIEKVMISSNAEDAFLIKMLLRQTRRPEIGDKFSSRHGQKGVCGLIVPQEDMPFCDSGICPDIIMNPHGFPSRMTVGKLIELLAGKAGVLDGRFHYGTAFGGSKVKDVCEDLVRHGYNYLGKDYVTSGITGEPLEAYIYFGPVYYQKLKHMVLDKMHARARGPRAVLTRQPTEGRSRDGGLRLGEMERDCLIGYGASMLLLERLMISSDAFEVDVCGQCGLLGYSGWCHYCKSSCHVSSLRIPYACKLLFQELQSMNIIPRLKLSKYNE | binding [8]: binds; binding [9]: binds
